# Source: patent publication US8236951B2, “Thioxanthine derivatives as myeloperoxidase inhibitors” (AstraZeneca AB, priority 2002, dated 2012)
# Some of these results come from one statement about several compounds together.
# Target: T1, human MPO (Homo sapiens, UniProt P05164)
# T1 sequence (P05164 49-745): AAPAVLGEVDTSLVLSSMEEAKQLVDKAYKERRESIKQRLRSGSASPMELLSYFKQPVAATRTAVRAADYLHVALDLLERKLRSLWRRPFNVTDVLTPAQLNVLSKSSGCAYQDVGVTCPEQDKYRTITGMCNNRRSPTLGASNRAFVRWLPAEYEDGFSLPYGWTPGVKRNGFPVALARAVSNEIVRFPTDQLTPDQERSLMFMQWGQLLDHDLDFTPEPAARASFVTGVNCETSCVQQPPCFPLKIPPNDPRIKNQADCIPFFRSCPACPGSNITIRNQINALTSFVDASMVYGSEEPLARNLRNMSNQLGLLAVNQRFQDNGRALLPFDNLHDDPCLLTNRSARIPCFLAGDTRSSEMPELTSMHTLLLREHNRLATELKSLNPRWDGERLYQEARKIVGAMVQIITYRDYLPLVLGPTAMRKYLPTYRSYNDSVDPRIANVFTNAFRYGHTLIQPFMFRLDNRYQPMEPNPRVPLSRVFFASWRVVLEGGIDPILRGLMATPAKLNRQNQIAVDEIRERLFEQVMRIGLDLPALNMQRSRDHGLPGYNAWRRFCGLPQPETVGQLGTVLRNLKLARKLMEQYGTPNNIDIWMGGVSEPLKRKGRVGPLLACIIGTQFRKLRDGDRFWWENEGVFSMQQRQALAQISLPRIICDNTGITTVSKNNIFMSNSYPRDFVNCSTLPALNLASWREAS
# Experiment: MPO inhibition screen (TMB oxidation, absorbance at about 650 nM)
# Format: biochemical
# Settings: human MPO 2.5 nM, H2O2 100 μM, assay buffer pH 6.5, room temperature
# Description: The pharmacological activity of compounds according to the invention was tested in the following screen:
# Assay buffer: 20 mM sodium/potassium phosphate buffer pH 6.5 containing 10 mM taurine and 100 mM NaCl.
# Then 50 μl of H202 (final concentration 100 μM), or assay buffer alone as a control, were added for 10 minutes at room temperature. […] IC50 values were then determined using standard procedures.
row,SMILES,IC50
1,"CC(C)Cn1c(=S)n(C)c(=O)c2[nH]cnc21 [Example 13, 3-Isobutyl-1-methyl-2-thioxanthine]",< 60 µM
2,"Cc1nc2c([nH]1)c(=S)n(C)c(=O)n2CC(C)C [Example 3, 3-Isobutyl-1,8-dimethyl-6-thioxanthine]",< 60 µM
3,"O=c1[nH]c(=S)n(CC2CC2)c2nc[nH]c12 [Example 12, 3-Cyclopropylmethyl-2-thioxanthine]",< 60 µM
4,"CC(C)Cn1c(=S)[nH]c(=O)c2c1ncn2C [Example 9, 3-Isobutyl-7-methyl-2-thioxanthine]",< 60 µM
5,"CCC(C)Cn1c(=O)[nH]c(=S)c2[nH]cnc21 (centres unmarked) [Example 4, 3-(2-Methylbutyl)-6-thioxanthine]",< 60 µM
6,"Cc1nc2c([nH]1)c(=S)n(CC(C)C)c(=O)n2CC(C)C [Example 1, 13-Diisobutyl-8-methyl-6-thioxanthine]",< 60 µM
7,"O=c1[nH]c(=S)n(CCc2ccccc2)c2nc[nH]c12 [Example 20, 3-Phenethyl-2-thioxanthine]",< 60 µM
8,"O=c1[nH]c(=S)n(CCCN2CCOCC2)c2nc[nH]c12 [Example 16, 3-(3-(1-Morpholinyl)-propyl)-2-thioxanthine]",< 60 µM
9,"O=c1[nH]c(=S)n(CC2CCCCC2)c2nc[nH]c12 [Example 10, 3-Cyclohexylmethyl-2-thioxanthine]",< 60 µM
10,"Cc1nc2c([nH]1)c(=O)[nH]c(=S)n2CC(C)C [Example 8, 3-Isobutyl-8-methyl-2-thioxanthine]",< 60 µM
11,"CCCCn1c(=S)[nH]c(=O)c2[nH]cnc21 [Example 22, 3-n-Butyl-2-thioxanthine]",< 60 µM
12,"CCCCn1c(=S)c2[nH]c(C)nc2n(CCCC)c1=O [Example 2, 1,3-Dibutyl-8-methyl-6-thioxanthine]",< 60 µM
13,"COCCn1c(=S)[nH]c(=O)c2[nH]cnc21 [Example 15, 3-(2-Methoxy-ethyl)-2-thioxanthine]",< 60 µM
14,"COc1ccc(Cn2c(=S)[nH]c(=O)c3[nH]cnc32)cc1 [Example 18, 3-(4-Methoxybenzyl)-2-thioxanthine]",< 60 µM
15,"CC(C)Cn1c(=S)[nH]c(=S)c2[nH]cnc21 [Example 7, 3-Isobutyl-2,6-dithioxanthine]",< 60 µM
16,"O=c1[nH]c(=S)n(Cc2ccco2)c2nc[nH]c12 [Example 17, 3-(2-Furyl-methyl)-2-thioxanthine]",< 60 µM
17,"O=c1[nH]c(=S)n(CC2CCCO2)c2nc[nH]c12 (racemic) [Example 14, 3-(2-Tetrahydrofuryl-methyl)-2-thioxanthine]",< 60 µM
18,"Cc1nc2c([nH]1)c(=S)[nH]c(=O)n2CC(C)C [Example 5, 3-Isobutyl-8-methyl-6-thioxanthine]",< 60 µM
19,"COCCCn1c(=S)[nH]c(=O)c2[nH]cnc21 [Example 11, 3-(3-Methoxypropyl)-2-thioxanthine]",< 60 µM
20,"CC(C)Cn1c(=S)[nH]c(=O)c2[nH]cnc21 [Example 6, 3-Isobutyl-2-thioxanthine]",< 60 µM
